Laboratory results reported in patent US20240368307A1, “METHODS AND COMPOSITIONS FOR TREATING SEPSIS” (THE UNIVERSITY OF CHICAGO, priority 2023, published 2024).
At least one structure is not confirmed: it was looked up by name or label, or the drawing left a doubt.

Tested on: Pla2g5 gene expression
Experiment: Pla2g5 gene expression in tissues after LPS with dexamethasone pre-treatment
Format: in vivo, mouse
Conditions: 7 mg/kg dexamethasone i.p. 1 hour prior to LPS

C[C@@H]1C[C@H]2[C@@H]3CCC4=CC(=O)C=C[C@]4(C)[C@@]3(F)[C@@H](O)C[C@]2(C)[C@@]1(O)C(=O)CO [dexamethasone]
Pla2g5 gene induction during sepsis in the gut: abrogated Pla2g5 gene induction | Pla2g5 gene regulation during sepsis in heart: but not in heart
